Measurements taken from the supplement of paper PMC7858590.
± gives the standard deviation of the averaged measurements. Over roughly 3,800 compounds, “cell shape (eccentricity) Z-score vs DMSO control” has its median near 1.1; the lowest 2% begin near -4.7. This is one part of the list.

Tested on: human monocyte-derived macrophages (M0)
Experiment: cell shape (eccentricity) Z-score vs DMSO control; higher = more elongated, M2-like morphology
Conditions: 20 µM; 24 h; macrophage state: M0 (M-CSF)

First: C1=C(CN2CCOCC2)COc2c1cccc2OCC1CNCCO1 (stereo not drawn)
Second: CCn1c(=O)n(C2=C(CO)CN(CC3CCCCCCC3)CC2)c2ccccc21
The “cell shape (Z-score)” value of the first is higher: 2.61 for the first, 0.146 for the second.

Compared with CC1=CCC(C(C)(C)O[C@@H]2O[C@H](COC(=O)c3cc(O)c(O)c(O)c3)[C@@H](O)[C@H](O)[C@H]2O)CC1 (stereo partly drawn), COc1cc(-c2oc3cc(O)cc(O)c3c(=O)c2OC2OC(CO[C@@H]3O[C@@H](C)[C@H](O)[C@@H](O)[C@H]3O)C(O)C(O)C2O)ccc1O (stereo partly drawn) is lower in “cell shape (Z-score)” value: -0.772 for the first, -2.62 for the second.

Compared with COc1cc2c(cc1O)C1(O)Cc3ccc4c(c3C1N(C)CC2)OCO4 (stereo not drawn), COc1cc(O)cc(C(=O)O)c1Oc1cc(C)cc(O)c1C(=O)O is higher in “cell shape (Z-score)” value: 0.0689 for the first, 0.855 for the second.

Going from C/C=C/C/C=C/CCC(=O)[C@H]1O[C@H]1C(N)=O to C=C(C(=O)O)C1C(OC(=O)/C(=C/CO)CO)CC(C)(O)C2CC(OC(C)=O)C(C)=CC12 (stereo not drawn), the “cell shape (Z-score)” value falls from 2.07 to 0.166.

First: O=C(O)CCCc1ccccc1
Second: c1ccc(CNc2ncnc3nc[nH]c23)cc1
The “cell shape (Z-score)” value of the first is lower: 0.59 for the first, 1.75 for the second.

Going from Cc1ccc(-c2nn(C(C)(C)C)c3ncnc(N)c23)cc1 to CC(C)(C)C(=O)OCOP(=O)(COCCn1cnc2c(N)ncnc21)OCOC(=O)C(C)(C)C, the “cell shape (Z-score)” value falls from 0.687 to -2.38.

First: CC1OC(OCC2OC(O[C@H]3CC[C@@]4(C)C(CC[C@@]5(C)C6=C(CCC45)C4CC(C)(C)CC[C@]4(C(=O)OC4OC(CO)C(O)C(O)C4O)CC6)C3(C)C)C(O)C(O)C2O)C(O)C(O)C1O (stereo partly drawn)
Second: CC1(C)CC[C@]2(C(=O)O[C@@H]3O[C@H](CO[C@@H]4O[C@H](CO)[C@@H](O)[C@H](O)[C@H]4O)[C@@H](O)[C@H](O[C@@H]4O[C@H](CO)[C@@H](O)[C@H](O)[C@H]4O)[C@H]3O)CC[C@]3(C)C(=CCC4[C@@]5(C)CC[C@H](O)[C@@](C)(C(=O)O)C5CC[C@]43C)C2C1 (stereo partly drawn)
The “cell shape (Z-score)” value of the first is higher: 4.2 ± 2.3 for the first, 1.07 for the second.

NC(CC(=O)Nc1ccc(Oc2cc(F)c(F)cc2Br)cc1)C(=O)O (stereo not drawn) and O=C(Nc1ccc([N+](=O)[O-])cc1O)Nc1ccccc1Br are within error of each other in “cell shape (Z-score)” value: 1.14 for the first, -4.95 ± 7.5 for the second.

First: CC(=O)Oc1ccc(C(=C2CCCCC2)c2ccc(OC(C)=O)cc2)cc1
Second: COc1ccc([C@@]2(O)c3c(ccc(CC=C(C)C)c3O)NC(=O)[C@@H]2OC)cc1
The “cell shape (Z-score)” value of the first is higher: 0.835 for the first, 0.446 for the second.

CC(=O)/C=C/C1(O)C(C)CCC2C(C)(C)CCCC21C (stereo not drawn) and CC(=O)OCC(=O)[C@@]1(O)CCC2C3CCC4=CC(=O)C=C[C@]4(C)[C@@]3(Cl)[C@@H](Cl)C[C@@]21C (stereo partly drawn) are within error of each other in “cell shape (Z-score)” value: -2.22 ± 0.82 for the first, -2.51 for the second.

Compared with COc1cccc2c1C(=O)c1c(O)c3c(c(O)c1C2=O)CC(O)(C(=O)CO)CC3OC1CC(N)C(O)C(C)O1 (stereo not drawn), COc1ccc([C@@H]2CC(=O)c3c(O)cc(O[C@@H]4O[C@H](CO[C@H]5O[C@@H](C)[C@H](O)[C@@H](O)[C@H]5O)[C@@H](O)[C@H](O)[C@H]4O)cc3O2)cc1O is higher in “cell shape (Z-score)” value: 2.61 for the first, 3.07 for the second.

CC(=O)OC1CC2(C)C3CC=C4C(CC(O)C(O)C4(C)C)C3(C)CCC2(C)C1C(C)(O)C(=O)CCC(C)(C)O (stereo not drawn) and CC1(CCOC2OC(CO)C(O)C(O)C2O)CCC2C(=CCC3C(C)(C(=O)O)CCCC23C)C1 (stereo not drawn) are within error of each other in “cell shape (Z-score)” value: 1.76 for the first, 3.65 ± 3.6 for the second.

First: C=C1C(=O)O[C@@H]2[C@H]3C(CO)=CC(=O)C3=C(C)C[C@H](OC(=O)Cc3ccc(O)cc3)[C@@H]12
Second: O=c1c(-c2ccc(O)cc2)coc2cc(O[C@@H]3O[C@H](CO)[C@@H](O)[C@H](O)[C@H]3O)cc(O)c12
The “cell shape (Z-score)” value of the first is lower: -6.23 for the first, 3.66 for the second.

Compared with C[C@]12CCC(=O)C=C1C=CC1C2CC[C@@]2(C)C1CC[C@@]21CCC(=O)O1 (stereo partly drawn), C[C@]12C=CC(=O)C=C1CCC1C2[C@@H](O)C[C@@]2(C)C1CC[C@]2(O)C(=O)COC(=O)CCC(=O)O (stereo partly drawn) is lower in “cell shape (Z-score)” value: 3.08 for the first, -4.31 for the second.

Going from COC1=CC(=O)C[C@@H](C)[C@]12Oc1c(Cl)c(OC)cc(OC)c1C2=O to COc1cc(-c2coc3cc(OCc4ccccc4)c(OC)c(O)c3c2=O)cc(OCc2ccccc2)c1OC, the “cell shape (Z-score)” value rises from -0.627 to 2.54.

Compared with CC[C@H]1OC(=O)[C@H](C)[C@@H](O[C@H]2C[C@@](C)(OC)[C@@H](O)[C@H](C)O2)[C@H](C)[C@@H](O[C@@H]2O[C@H](C)C[C@H](N(C)C)[C@H]2O)[C@](C)(O)C[C@@H](C)C(=O)[C@H](C)[C@@H](O)[C@]1(C)O, C=C1[C@@H]2CC[C@H]3[C@]4(C)C[C@H](O)C[C@@H](C(=O)OC)[C@H]4CC[C@]3(C2)[C@H]1O is lower in “cell shape (Z-score)” value: 6.87 for the first, 0.438 for the second.

Going from CC(=O)Oc1cccc(O)c1 to Cc1cc(=O)oc2cc(O)ccc12, the “cell shape (Z-score)” value falls from 2.65 to 1.67.

First: Cc1onc(-c2ccccc2)c1C(=O)N[C@@H]1C(=O)N2[C@@H](C(=O)O)C(C)(C)S[C@@H]12
Second: C/C=C(/C)C(=O)OC1C(OC(C)=O)c2c(ccc3ccc(=O)oc23)OC1(C)C (stereo not drawn)
The “cell shape (Z-score)” value of the first is lower: 1.05 for the first, 1.85 for the second.

Compared with O=C1c2ccccc2S(=O)(=O)N1CCCCN1CCN(c2ncccn2)CC1, O=c1c2ccccc2nc2n1CCC2O (stereo not drawn) is lower in “cell shape (Z-score)” value: 1.29 for the first, 0.2 for the second.

First: CN(C)CCc1c[nH]c2ccc(Cn3cncn3)cc12
Second: CN(C)CCCN1c2ccccc2Sc2ccc(C(F)(F)F)cc21
The “cell shape (Z-score)” value of the first is lower: -1.24 for the first, -0.684 for the second.

Going from COc1ccc(NS(=O)(=O)c2ccc(N)cc2)nn1 to Nc1ccc(S(=O)(=O)Nc2ccnn2-c2ccccc2)cc1, the “cell shape (Z-score)” value falls from 2.12 to 1.56.

First: CN(C(=O)COC(=O)/C=C/c1cccc([N+](=O)[O-])c1)C1CCS(=O)(=O)C1 (stereo not drawn)
Second: O=C(/C=C/c1ccc(O)cc1)NCC(O)c1ccc(O)cc1 (stereo not drawn)
The “cell shape (Z-score)” value of the first is lower: -1.2 for the first, 0.0999 for the second.

Going from C/C(=C\C=C\C(C)C)CCC/C(C)=C/COc1c(O)cc2c(c1O)CNC2=O to CCCCC[C@@H](O)CC(=O)CCc1ccc(O)c(OC)c1, the “cell shape (Z-score)” value falls from -0.193 to -1.32.

Going from CCN(CC)CCOC(=O)C1(C2CCCCC2)CCCCC1 to OC1(c2ccc(Cl)c(C(F)(F)F)c2)CCN(CCCC(c2ccc(F)cc2)c2ccc(F)cc2)CC1, the “cell shape (Z-score)” value falls from 1.54 to -6.96.

Going from Cc1ncc(CSSCc2cnc(C)c(O)c2CO)c(CO)c1O to C=C(CO)[C@]1(O)C[C@@]2(C)C(=CC1=O)C=C[C@@H](O)[C@@H]2C, the “cell shape (Z-score)” value falls from 1.85 to 0.618.

First: Cn1[nH]c(=O)c(=O)[nH]c1=S
Second: C=CC1=C(C(=O)O)N2C(=O)[C@@H](NC(=O)/C(=N/O)c3csc(N)n3)[C@H]2SC1
The “cell shape (Z-score)” value of the first is lower: 0.81 for the first, 1.29 for the second.

In the case of O=S(=O)(NCCCCCCc1ccccc1)c1cccc2c(Cl)cccc12, the “cell shape (Z-score)” value is reported as 2.3.
